Data: US20110195849A1
Results are given in words; binding and its absence hold for the method and conditions named.

Protein sequences, listed by entry. Tags and fused reporters are not part of them. Lines headed by an entry give the natural chain unless they say otherwise; changes in a name come on top. Residues count along the entry.
UniProt P02769, residues 25-607: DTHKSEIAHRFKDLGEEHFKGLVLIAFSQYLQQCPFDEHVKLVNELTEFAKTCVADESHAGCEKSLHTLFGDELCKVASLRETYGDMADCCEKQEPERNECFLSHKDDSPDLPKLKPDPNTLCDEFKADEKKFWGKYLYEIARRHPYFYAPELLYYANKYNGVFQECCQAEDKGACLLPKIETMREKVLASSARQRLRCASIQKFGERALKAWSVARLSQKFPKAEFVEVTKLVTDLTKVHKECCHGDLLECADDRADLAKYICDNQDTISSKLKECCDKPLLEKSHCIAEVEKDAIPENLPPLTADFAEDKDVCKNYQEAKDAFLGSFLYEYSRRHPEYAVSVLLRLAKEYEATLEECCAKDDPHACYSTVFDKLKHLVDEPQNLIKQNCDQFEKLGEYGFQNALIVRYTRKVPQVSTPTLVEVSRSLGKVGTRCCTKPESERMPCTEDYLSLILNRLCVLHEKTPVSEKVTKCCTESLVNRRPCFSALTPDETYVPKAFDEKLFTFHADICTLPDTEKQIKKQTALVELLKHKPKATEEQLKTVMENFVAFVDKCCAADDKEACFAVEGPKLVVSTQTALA
UniProt P12004: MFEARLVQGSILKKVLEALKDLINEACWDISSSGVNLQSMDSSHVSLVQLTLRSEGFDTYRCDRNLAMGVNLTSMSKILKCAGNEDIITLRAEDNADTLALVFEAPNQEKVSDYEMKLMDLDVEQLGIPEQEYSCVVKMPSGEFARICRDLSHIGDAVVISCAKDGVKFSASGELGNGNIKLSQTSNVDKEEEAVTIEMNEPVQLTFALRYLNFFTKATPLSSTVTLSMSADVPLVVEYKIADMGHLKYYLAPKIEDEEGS
UniProt P40692: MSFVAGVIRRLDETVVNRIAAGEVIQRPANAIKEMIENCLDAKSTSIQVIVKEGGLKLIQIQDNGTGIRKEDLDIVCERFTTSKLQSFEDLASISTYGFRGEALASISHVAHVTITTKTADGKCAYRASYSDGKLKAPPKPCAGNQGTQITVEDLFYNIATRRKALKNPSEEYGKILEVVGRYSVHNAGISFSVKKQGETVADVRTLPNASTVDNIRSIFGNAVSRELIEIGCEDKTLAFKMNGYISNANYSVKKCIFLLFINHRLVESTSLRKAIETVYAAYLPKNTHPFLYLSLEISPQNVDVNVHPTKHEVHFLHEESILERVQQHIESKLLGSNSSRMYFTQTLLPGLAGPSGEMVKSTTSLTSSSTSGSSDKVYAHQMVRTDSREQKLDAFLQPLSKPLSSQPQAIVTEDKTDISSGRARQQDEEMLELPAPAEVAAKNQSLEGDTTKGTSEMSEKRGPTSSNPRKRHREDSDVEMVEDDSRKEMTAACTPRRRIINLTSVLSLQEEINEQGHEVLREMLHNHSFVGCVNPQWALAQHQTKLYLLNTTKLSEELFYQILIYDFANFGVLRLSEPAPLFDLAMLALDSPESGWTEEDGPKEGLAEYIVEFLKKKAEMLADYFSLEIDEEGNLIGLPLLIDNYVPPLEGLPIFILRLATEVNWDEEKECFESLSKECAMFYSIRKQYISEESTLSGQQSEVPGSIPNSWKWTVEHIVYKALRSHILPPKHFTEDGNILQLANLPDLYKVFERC

Key:
BSA (Bos taurus) [1] = biological target: BSA (Bos taurus) (UniProt P02769); experiment: condition: 4 pmol BSA spotted, 0.18 µM PCNA in solution; far-western dot blot, 0.25-4 pmol protein spotted on nitrocellulose, PCNA in solution, anti-PCNA detection [upper blot (PCNA]
BSA (Bos taurus) [2] = biological target: BSA (Bos taurus) (UniProt P02769); experiment: far-western after 7% SDS-PAGE and transfer to nitrocellulose, MutLα in solution, anti-MLH1 detection [right panel (MutLα far western]
BSA (Bos taurus) [3] = biological target: BSA (Bos taurus) (UniProt P02769); experiment: condition: 4 pmol BSA spotted, 0.18 µM MutLα in solution; far-western dot blot, 0.25-4 pmol protein spotted on nitrocellulose, MutLα in solution, anti-MLH1 detection [lower blot (MutLα]

Substance	binding (BSA (Bos taurus) [1])	binding (BSA (Bos taurus) [2])	binding (BSA (Bos taurus) [3])
PCNA (from UniProt P12004 1-261)	no binding		
MutLα (MLH1-PMS2) (from UniProt P40692 1-756; P54278 1-862) (enzyme)		no binding (tested: 0.09 µM MutLα, 2 pmol protein on the gel)	no binding
